The list shows a part of the results.

Chains of the proteins cited; added tags and fusions are not shown.
UniProt Q0JBA9, entry or part of it: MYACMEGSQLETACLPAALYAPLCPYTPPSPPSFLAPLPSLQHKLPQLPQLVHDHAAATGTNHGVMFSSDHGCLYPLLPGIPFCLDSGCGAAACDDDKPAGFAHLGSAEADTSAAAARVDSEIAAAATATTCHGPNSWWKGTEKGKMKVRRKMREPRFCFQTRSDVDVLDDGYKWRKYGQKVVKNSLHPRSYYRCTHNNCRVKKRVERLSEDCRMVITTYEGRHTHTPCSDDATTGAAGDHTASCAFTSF

For this experiment, the target named is OsWRKY34 (Oryza sativa, UniProt Q0JBA9 1-250). Put plainly: protein-binding microarray (RPBM); PBS, 2% BSA, 51.3 ng/ul salmon testes DNA, 50 uM zinc acetate, 200 nM TF, 25 C, 1 h; high values mean tight binding. Conditions: protein: recombinant; tags: N-terminal polyhistidine and DsRed monomer fusion (pET32a); label: CyDye5-dUTP incorporated in the synthesized complementary strand; 3' TTTTT single-stranded linker to array surface; dsDNA, one strand shown. In short, it runs like this:
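Using Ni–NTA, transcription factors fused N-terminally to polyhistidine and DsRed were purified after expression in E. coli BL21-CodonPlus. These were incubated at 200 nM with a blocked, double-stranded custom Agilent array for 1 h at 25 °C in a buffer containing 50 µM zinc acetate, and the array was washed. The binding signal is per-feature fluorescence intensity (arbitrary units) on an Axon 4000B scanner.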
Regarding “TCTCTCTCCTTTTGTTGCTTCCATTTCTCGTTCTTGCACGCGGAGTCACCTAGTGCAG”, the binding signal is 10500 fluorescence intensity (a.u.).

For the sequence “TGCATCATATCCTCGTCGTCGTGGCTGCTTTGCCAGCTTGCGGAGTCACCTAGTGCAG”, the binding signal was 8780 fluorescence intensity (a.u.).

Consider “TTAGTTGCTCTTACTTTTGCGGGGTTTCGTCCCATAGTTTCGGAGTCACCTAGTGCAG”, for which the binding signal was 11400 fluorescence intensity (a.u.).

“CCTAAGCCGTCCGATTCTCCACCATCCCGACGATCCCTCCCGGAGTCACCTAGTGCAG”: the binding signal was 8060 fluorescence intensity (a.u.).

Consider “CGTCCTTTGCGCCGTCGGCCGACCTCATCCCCACCATTTTCGGAGTCACCTAGTGCAG”, for which the binding signal is 8220 fluorescence intensity (a.u.).

Consider “TAACTGTTTGAGAATTTGTGGTTTGCTACTACTACTTGATCGGAGTCACCTAGTGCAG”, for which the binding signal is 8210 fluorescence intensity (a.u.).

With “CGATAAAGAGACTTTTTTTTTCCTTTTGCTCCTTTTCTTGCGGAGTCACCTAGTGCAG”, the binding signal was 8240 fluorescence intensity (a.u.).

“CACTCGGCCCAACAACCACCCGCATCCCCACCACCCCACACGGAGTCACCTAGTGCAG”: the binding signal is 8460 fluorescence intensity (a.u.).

In the case of “TGGGGATGGAAGAAGGTGTTGGGCAAGGTCACCAGTCCCGCGGAGTCACCTAGTGCAG”, the binding signal is 9750 fluorescence intensity (a.u.).

With “ATTATCTCCACATTATTTTCATATTATTTAGATATATGCACGGAGTCACCTAGTGCAG”, the binding signal was 8220 fluorescence intensity (a.u.).

Turning to “AGCTGTGTATTTACTCCCTTCTTGAGGGTGCTTTCTTCATCGGAGTCACCTAGTGCAG”, the binding signal was 11100 fluorescence intensity (a.u.).

“TGCCTGTAGTGGCGGTTGGGGATGCGGATAAGGCGAGGGGCGGAGTCACCTAGTGCAG”: the binding signal was 14500 fluorescence intensity (a.u.).

For “ACTTTTTTTCTCAATCTGTGCTCTTTCACGTGTTTGACTTCGGAGTCACCTAGTGCAG”, the binding signal was 11400 fluorescence intensity (a.u.).

Turning to “TACTCATCTTCCGTTGTCCTATGCTATTTTCTCCAGGGAACGGAGTCACCTAGTGCAG”, the binding signal was 9400 fluorescence intensity (a.u.).

As to “GTCGAGGGATGCCCGGTATCTGGTTTTGTGGTTGGGGACGCGGAGTCACCTAGTGCAG”, the binding signal was 8730 fluorescence intensity (a.u.).

“TCTTCCTTCTTGAGGGACATCTAACCATTGCCCCATTTTTCGGAGTCACCTAGTGCAG”: the binding signal is 8020 fluorescence intensity (a.u.).

For the sequence “GTGGTTTCGCTGCTTGGTCATCACTGCTCCGTCGTCGGCTCGGAGTCACCTAGTGCAG”, the binding signal was 8110 fluorescence intensity (a.u.).

Take “TCACCATCAGACAGCATTGCTGTGTTTCTACCTGCCTGACCGGAGTCACCTAGTGCAG”: the binding signal is 8660 fluorescence intensity (a.u.).

Consider “GATCCCCACTGTTTTTTCTTTTCCTTTTGGCCACTCTTTGCGGAGTCACCTAGTGCAG”, for which the binding signal was 10300 fluorescence intensity (a.u.).

In the case of “TGCTAGATCTGTTTCTACTTGCGTTTGCGTTGCTTGGCAACGGAGTCACCTAGTGCAG”, the binding signal is 8500 fluorescence intensity (a.u.).

On to “AGCAATACCGGACAATCCCTCGCGCCATCGAGCTTTCCTCCGGAGTCACCTAGTGCAG”, for which the binding signal was 10800 fluorescence intensity (a.u.).

As to “GGCGGCATCATCCTCATTCATTCAGTTCTTGTTTTGGCCACGGAGTCACCTAGTGCAG”, the binding signal is 11900 fluorescence intensity (a.u.).

Regarding “ACCGTGTCGAACAGCTTCTTCACTATCGCGGAATCACTCACGGAGTCACCTAGTGCAG”, the binding signal was 11700 fluorescence intensity (a.u.).

Turning to “AGCTAGCTCTGCCACCACTGCCATTCTACCTGTATTTTAACGGAGTCACCTAGTGCAG”, the binding signal was 8950 fluorescence intensity (a.u.).

With “CACCGTTGACTTTTTGACCAACGTTTGACCCTTTGTTTTACGGAGTCACCTAGTGCAG”, the binding signal is 57700 fluorescence intensity (a.u.).

For the sequence “CAACCGTCTGTTCCTTTTTGGATCAATGGGCCAACGTTGCCGGAGTCACCTAGTGCAG”, the binding signal is 12700 fluorescence intensity (a.u.).

With “GGACCTTCTCGCGGCGCTGCACCTGGACGCGTCGAACCCGCGGAGTCACCTAGTGCAG”, the binding signal was 8170 fluorescence intensity (a.u.).

As to “TACTGCTTCAACAGGTCGCTGCAGCTCTCATTATCACGGCCGGAGTCACCTAGTGCAG”, the binding signal was 8280 fluorescence intensity (a.u.).

As for “CCTCACTGACCCGCTCTCTCTTCTCTCATCTATATAGGCTCGGAGTCACCTAGTGCAG”, the binding signal was 10300 fluorescence intensity (a.u.).

For “GCTCTTTCTTCATTTCAAAGGAGACCTTAGAATTCTCTTTCGGAGTCACCTAGTGCAG”, the binding signal was 8090 fluorescence intensity (a.u.).

On to “TTTTATTAACTGTAAACGTCACATGTTCTGTCATACGCGTCGGAGTCACCTAGTGCAG”, for which the binding signal was 9250 fluorescence intensity (a.u.).

As to “AACGTCCCACACTTCTCCACACCTTACGCGACCCCGAACCCGGAGTCACCTAGTGCAG”, the binding signal is 8990 fluorescence intensity (a.u.).

Consider “GTGGTCAAGAGCTTTGTTTTCTTTGTCACTTTTCATTATTCGGAGTCACCTAGTGCAG”, for which the binding signal was 10100 fluorescence intensity (a.u.).

On to “GCGACTCCCGTCGTCTCGTCGATTCCCAGTCCGACTCAGTCGGAGTCACCTAGTGCAG”, for which the binding signal was 8330 fluorescence intensity (a.u.).

For the sequence “ATACACATGCACATTTAGTTCCTCCCGGTAAGTTCGTCGTCGGAGTCACCTAGTGCAG”, the binding signal was 8260 fluorescence intensity (a.u.).

On to “TGTTTTTGCTTCTCTTCCTTTTGCTGGAGCTTATTGGTTTCGGAGTCACCTAGTGCAG”, for which the binding signal was 10100 fluorescence intensity (a.u.).

Regarding “CTGCTCTCTCCTCCGCCTGATTCCTCATTCCTCCAACCAGCGGAGTCACCTAGTGCAG”, the binding signal is 8540 fluorescence intensity (a.u.).

In the case of “GGTTGGGCGGGCGAGGAGGTGTGCCACGTCAGAATTTTGCCGGAGTCACCTAGTGCAG”, the binding signal was 10100 fluorescence intensity (a.u.).

“TGTACTTTTTCCTTGTTGATTTGGGCCTGCATGAATGATTCGGAGTCACCTAGTGCAG”: the binding signal is 10600 fluorescence intensity (a.u.).

In the case of “GTGTAGTGTAGTGTAGTGTAGTGGAGTATGTATCTAATAACGGAGTCACCTAGTGCAG”, the binding signal is 10000 fluorescence intensity (a.u.).

“TTGTATCTTTCAAAACTTCAGGAGTTTGTTTTTTTTGCACCGGAGTCACCTAGTGCAG”: the binding signal is 9460 fluorescence intensity (a.u.).

As for “CCCATTAAATCCCGTCCATTCGTTCGTTTTGATCCTACGGCGGAGTCACCTAGTGCAG”, the binding signal is 10100 fluorescence intensity (a.u.).

For the origin of these results see article PMC7819943, “Rice protein-binding microarrays: a tool to detect cis-acting elements near promoter regions in rice”.
